Whole data set: some 3,200 compounds, median “TSA(with NAD+) / Primary screening (TSA) / delta Tm (K)” near -0.04, cut for the highest 2% near 0.37. The list shows a part of the results.

By UniProt entry, the sequences of proteins in these tests, tags left out. Residues count along the entry.
UniProt Q96EB6, 2-747 limits assumed: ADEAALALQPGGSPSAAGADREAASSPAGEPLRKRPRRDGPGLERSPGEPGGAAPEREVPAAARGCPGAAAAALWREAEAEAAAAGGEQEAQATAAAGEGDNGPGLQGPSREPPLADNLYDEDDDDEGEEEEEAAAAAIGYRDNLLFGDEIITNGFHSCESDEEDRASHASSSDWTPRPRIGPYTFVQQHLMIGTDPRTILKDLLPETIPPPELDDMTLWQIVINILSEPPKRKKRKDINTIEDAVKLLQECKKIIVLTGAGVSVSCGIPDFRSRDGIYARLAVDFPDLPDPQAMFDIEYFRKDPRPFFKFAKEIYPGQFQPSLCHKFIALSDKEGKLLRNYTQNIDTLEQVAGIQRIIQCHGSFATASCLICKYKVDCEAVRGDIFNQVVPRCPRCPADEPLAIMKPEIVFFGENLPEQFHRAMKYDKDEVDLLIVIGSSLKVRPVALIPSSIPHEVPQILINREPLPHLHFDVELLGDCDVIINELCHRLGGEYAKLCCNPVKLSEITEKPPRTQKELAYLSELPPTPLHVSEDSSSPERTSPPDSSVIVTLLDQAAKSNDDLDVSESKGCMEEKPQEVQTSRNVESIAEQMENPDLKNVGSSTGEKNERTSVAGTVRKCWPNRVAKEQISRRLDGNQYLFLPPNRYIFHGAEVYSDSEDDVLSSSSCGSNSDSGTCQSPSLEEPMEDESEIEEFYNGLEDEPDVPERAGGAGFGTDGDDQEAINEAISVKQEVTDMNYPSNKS

The assay addresses NAD-dependent deacetylase Sirtuin 1 (human, UniProt Q96EB6). Put plainly: primary screen, delta tm. Set-up: single well (n = 1, as 'the same TSA'). Conditions: 10 µM.
Regarding `Nc1nc(Cl)cc(NC2CCCC2)n1`, the “TSA(with NAD+) / Primary screening (TSA) / delta Tm (K)” value is listed as -0.02 K.
The figure for `Cc1ccc(C23CC4CC(CC(C(=O)OCC(=O)N5c6ccccc6NC(=O)C5(C)C)(C4)C2)C3)cc1` is -0.23 K; for `O=C(O)CC(S)C(=O)O` (centres unmarked) it is -0.04 K.
For `COc1ccc(C=C2C(=O)NC(=S)NC2=O)c(OC)c1`, the “TSA(with NAD+) / Primary screening (TSA) / delta Tm (K)” value is on record as -0.09 K.
In the case of `O=C(NNC(=O)C12CC3CC(CC(C3)C1)C2)c1ccc(NS(=O)(=O)c2ccc3c(c2)OCCO3)cc1`, the “TSA(with NAD+) / Primary screening (TSA) / delta Tm (K)” value was -0.08 K.
The figure for `Cc1cnc2c(S(=O)(=O)N3CCN(CC(=O)Nc4ccccc4OC(F)F)CC3)cccc2c1` is 0.13 K; for `Cc1nc2c(C(N)=O)ncn2c(C)c1CCC(=O)Nc1ccc(F)c(C(N)=O)c1` it is 0.09 K; for `COc1ccc(C(N)=O)cc1NC(=O)c1nc2nc(C)cc(C)n2n1` it is -0.11 K.
The same measure for `O=C(CCc1cccs1)Nc1ccc(-c2nnc3n2CCCCC3)cc1`: -0.11 K.
The same measure for `O=C1/C(=C/c2cnn(-c3ccccc3)c2)Oc2cc(O)ccc21`: 0.99 K; for `CCOc1ccc(C2C(C(=O)c3cccs3)=C(O)C(=O)N2CCCN2CCOCC2)cc1OC` (centres unmarked): 0.08 K; for `COc1cccc(NC(=S)Nc2cccc(S(=O)(=O)N(C)c3ccccc3)c2)c1`: 0.11 K.
In the case of `NC(=O)c1ccc(NC(=O)COC(=O)CCC(=O)c2ccc(Cl)cc2)cc1`, the “TSA(with NAD+) / Primary screening (TSA) / delta Tm (K)” value is -0.18 K.
For the molecule `COc1cc(CN(C)C(=O)Cc2n[nH]c(=O)c3ccccc23)ccc1OCc1ccccc1`, the “TSA(with NAD+) / Primary screening (TSA) / delta Tm (K)” value is given as -0.14 K.
The same measure for `Cc1nc(C(C)NC(=O)c2ccc[nH]2)sc1C(=O)O` (centres unmarked): -0.11 K.
In the case of `Cc1ccc(-c2noc(C(C)N3CCN(c4ncnc5cc(Cl)ccc45)CC3)n2)cc1` (centres unmarked), the “TSA(with NAD+) / Primary screening (TSA) / delta Tm (K)” value came out at 0.02 K.
The figure for `Cc1ccc(Oc2ccc(NCc3nnc(C4CCC4)o3)cc2)nn1` is 0.06 K; for `N#Cc1cnn(C(=O)C2=NOC(c3ccccc3)C2)c1N` (centres unmarked) it is -0.04 K.
The figure for `CCCCOCCN` is -0.05 K.
In the case of `Cc1nc(C)c(C(C)NC(=O)CSC(=S)N2CCC(C)CC2)s1` (centres unmarked), the “TSA(with NAD+) / Primary screening (TSA) / delta Tm (K)” value was 0.02 K.
For the molecule `O=C([O-])CP(=O)([O-])C(=O)[O-]`, the “TSA(with NAD+) / Primary screening (TSA) / delta Tm (K)” value is -0.16 K.
Regarding `O=c1[nH]cccc1O`, the “TSA(with NAD+) / Primary screening (TSA) / delta Tm (K)” value is listed as -0.22 K.
The same measure for `Cc1sc(NC(=O)N2CCN(Cc3nc(-c4ccc(Cl)cc4)no3)CC2)c(C#N)c1C`: -0.01 K.
The figure for `CCOc1ccccc1/C=C1/Oc2cc(O)ccc2C1=O` is -0.01 K.
In the case of `O=C1CC2(CCCCC2)CC(=O)C1=CNCC1COc2ccccc2O1` (centres unmarked), the “TSA(with NAD+) / Primary screening (TSA) / delta Tm (K)” value is -0.38 K.
The figure for `O=C(Nc1ccccc1Oc1ccccc1)C1COc2ccccc2O1` (centres unmarked) is -0.21 K; for `Cc1ccc(N(C)S(=O)(=O)c2cccc(C(=O)Nc3ccccc3C)c2)cc1` it is 0.06 K.
The same measure for `CCCOc1cccc(C2C(C(=O)c3cccs3)=C(O)C(=O)N2CCCN2CCOCC2)c1` (centres unmarked): 0.01 K; for `Cc1ccc(-c2nnc(CCC(=O)Nc3cccc(C)c3C)o2)cc1`: -0.03 K.
The same measure for `CC(C)CC(NC(N)=O)C(=O)NC(Cc1ccccc1)c1nc2ccccc2[nH]1` (centres unmarked): -0.12 K.
For the molecule `COc1ccc(C=C2C(=O)NC(=S)NC2=O)c2ccccc12`, the “TSA(with NAD+) / Primary screening (TSA) / delta Tm (K)” value was -0.01 K.
The figure for `O=c1[nH]nc(-c2ccc(F)cc2)o1` is -0.04 K; for `Cc1cccc(-c2nc3ccccc3n3c(C)nnc23)c1` it is -0.13 K.
As for `CC1(C)CC(=O)C(=CNNC(=O)CC23CC4CC(CC(C4)C2)C3)C(=O)C1`, the “TSA(with NAD+) / Primary screening (TSA) / delta Tm (K)” value is -0.06 K.
As for `O=C(/C=C/c1ccco1)C1=C(O)C(=O)N(CCN2CCOCC2)C1c1ccncc1` (centres unmarked), the “TSA(with NAD+) / Primary screening (TSA) / delta Tm (K)” value is on record as -0.06 K.
The figure for `Cc1cc(CNC(=O)Cc2sc(S)nc2C)on1` is -0.04 K; for `COc1cc(CN(C)C(=O)CN2C(=O)NC3(CCc4ccccc43)C2=O)ccc1OCc1ccccc1` (centres unmarked) it is -0.02 K; for `O=C(c1cc2c(s1)CCCC2)N(Cc1ccccc1)c1ccccc1` it is -0.25 K.
The same measure for `O=C(NCCc1c[nH]c2ccccc12)C1=COCCO1`: -0.13 K; for `COC(=O)CCN`: -0.02 K; for `CCC(CN)OC` (centres unmarked): -0.11 K.
The figure for `CSc1nc(-c2ccccc2)c[nH]1` is -0.09 K; for `CC1CCC(NN)CC1` (centres unmarked) it is -0.01 K.
On to `c1ccc(-c2[nH]c3c(ccc4ccccc43)c2-c2ccccc2)cc1`, for which the “TSA(with NAD+) / Primary screening (TSA) / delta Tm (K)” value amounted to 0.29 K.
The same measure for `O=C(CN1CCN(c2nc(-c3ccccc3)nc3ccccc23)CC1)Nc1nncs1`: -0.05 K; for `CN(c1ccc(Oc2ncnc3ccccc23)cc1)S(=O)(=O)c1ccc2ccccc2c1`: -0.42 K; for `Cc1c(C(=O)N2c3ccccc3NC(=O)C2(C)C)oc2ccc(Br)cc12`: -0.41 K.

The values above are taken from PMC6925144, “A prospective compound screening contest identified broader inhibitors for Sirtuin 1” (Scientific Reports, 2019).
